# In US10323036B2 (Nimbus Lakshmi, Inc., priority 2016, dated 2019):
# Amino acid sequences for entries named in this document (tags omitted). Residues count along the entry.
# UniProt P29597, 833-1187: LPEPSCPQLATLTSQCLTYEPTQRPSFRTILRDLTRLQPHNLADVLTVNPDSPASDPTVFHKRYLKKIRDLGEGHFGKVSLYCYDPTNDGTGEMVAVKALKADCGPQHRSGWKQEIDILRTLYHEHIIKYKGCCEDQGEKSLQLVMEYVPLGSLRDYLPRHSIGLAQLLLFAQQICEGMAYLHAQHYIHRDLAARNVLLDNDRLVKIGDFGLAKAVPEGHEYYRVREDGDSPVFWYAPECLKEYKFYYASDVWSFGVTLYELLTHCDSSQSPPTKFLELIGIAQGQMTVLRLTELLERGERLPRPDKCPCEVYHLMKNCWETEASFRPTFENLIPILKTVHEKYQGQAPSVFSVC
# For at least one compound, name, drawing or mass did not settle the structure.
# Target: TYK2 JH1 kinase (Homo sapiens (Human), UniProt P29597)
# Assay: Tyk2 Radioactive Kinase Assay
# Assay type: biochemical
# Settings: ATP at 10 μM
# Method: Peptide substrate, [KKSRGDYMTMQIG (SEQ ID NO: 2)], (20 μM) is prepared in reaction buffer (20 mM Hepes pH 7.5, 10 mM MgCl2, 1 mM EGTA, 0.02% Brij35, 0.02 mg/mL BSA, […], 2 mM DTT, 1% DMSO. TYK2 (Invitrogen) kinase is added, followed by compounds in DMSO. 33PATP is added to initiate the reaction in ATP at 10 μM. Kinase reaction is incubated for 120 min at room temp and reactions are spotted onto P81 ion exchange paper (Whatman #3698-915), and then washed extensively in 0.75% phosphoric acid, prior to reading the radioactivity counts. For JAK2 (Invitrogen) kinase assay the peptide substrate poly[Glu:Tyr] (4:1), 0.2 mg/ml is used, in the reaction carried out the same as for TYK2.
structure (smiles),measurement,value
"COc1c(Nc2cc(NC(=O)C3CC3)ncc2-c2ncc(Cl)s2)cccc1-c1nnn(C)n1 [VIII-1, N-(5-(5-chlorothiazol-2-yl)-4-((2-methoxy-3-(2-methyl-2H-tetrazol-5-yl)phenyl)amino)pyridin-2-yl)cyclopropanecarboxamide]",inhibitory activity against TYK2 JH1 kinase function,no detectable inhibitory activity
